{"source": "patent US10768157B2", "about": "“Materials and methods for the detection of trace amounts of substances in biological and environmental samples” (THE FLORIDA INTERNATIONAL UNIVERSITY BOARD OF TRUSTEES, priority 2015, dated 2020)", "experiment": "Maximum adsorption capacity of the sol-gel molecularly imprinted sorbent (six sulfa drugs)", "assay_type": "binding", "conditions": "30 mg MIP, mixture of 6 sulfa drugs 10-1000 mg/L", "procedure": "In order to calculate the sorption capacity at equilibrium a SPE cartridge packed with 30 mg of MIP particles was used. Experiments under optimum conditions were carried out sequentially on the same SPE cartridge. In each subsequent test, the initial concentration was increased in a range 10-1000 ng μL^-1 and the final concentration was determined by HPLC-DAD. The amount of adsorbed (mg/g) was calculated by using the formula reported by Vanderborght and Van […]:00002} Were Ci is the initial concentration (mg/L), Ce is the equilibrium concentration (mg/L), V is the volume (L) and m is the mass (g) of the adsorbent. […] The final Ce concentrations were calculated on HPLC. The maximum capacity (Q, mg/g) for each of the six compounds was determined with the above equation. The results are represented in FIG. 12."}
{"smiles": "Nc1ccc(S(N)(=O)=O)cc1", "note": "[Sulfanilamide]", "values": [{"measurement": "Adsorption Capacity, Q", "value": 6.0, "unit": "mg/g"}]}
